Paper PMC5645412, “AUNIP/C1orf135 directs DNA double-strand breaks towards the homologous recombination repair pathway” (Nature Communications, 2017)
A weaker result is weaker than the reference pair of the same experiment. Where a protein sequence is shown, tags need not be part of it. For some of these results: Construct, isoform or probe ends are uncertain for at least one entry.

Assays:
MBP-AUNIP = molecular target: T1, MBP-AUNIP (UniProt Q9H7T9); assay: EMSA; conditions: 10 mM MgCl2, 20 nM biotin-DNA, 0-200 nM protein, 1x LightShift binding buffer with 10 mM MgCl2, 2.5% glycerol, 0.05% NP-40, 20 min, room temperature, 10% native PAGE, recombinant protein
T1 sequence (looked up, limits assumed): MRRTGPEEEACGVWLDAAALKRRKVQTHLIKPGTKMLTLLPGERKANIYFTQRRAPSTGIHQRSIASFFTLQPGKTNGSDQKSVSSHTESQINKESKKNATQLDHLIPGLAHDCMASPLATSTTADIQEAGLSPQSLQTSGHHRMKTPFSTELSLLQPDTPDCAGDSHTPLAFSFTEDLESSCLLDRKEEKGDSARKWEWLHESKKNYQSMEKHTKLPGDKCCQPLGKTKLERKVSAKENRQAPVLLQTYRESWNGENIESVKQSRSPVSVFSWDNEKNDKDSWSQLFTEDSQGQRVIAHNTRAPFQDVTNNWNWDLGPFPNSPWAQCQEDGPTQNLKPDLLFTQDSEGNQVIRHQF

MBP-AUNIP 21-70 = molecular target: T2, MBP-AUNIP 21-70 (UniProt Q9H7T9); assay: EMSA; conditions: 10 mM MgCl2, up to 200 nM protein; 20 nM biotin-DNA, 0-200 nM protein, 1x LightShift binding buffer with 10 mM MgCl2, 2.5% glycerol, 0.05% NP-40, 20 min, room temperature; 10% native PAGE; recombinant protein; residues 21-70; label: 5'-biotin on oligo 1
T2 sequence (looked up): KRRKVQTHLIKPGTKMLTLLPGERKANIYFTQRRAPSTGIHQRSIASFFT

“GACGCTGCCGAATTCTACCAGTGCCTTGCTAGGACATCTTTGCCCACCTGCAGGTTCAC [ssDNA (oligo 1 presumed)]”: binds more weakly (MBP-AUNIP; label: 5'-biotin, single-stranded DNA).

“GACGCTGCCGAATTCTACCAGTGCCTTGCTAGGACATCTTTGCCCACCTGCAGGTTCAC / ATAGTCGGATCCTCTAGACAGCTCCATGTAGCAAGGCACTGGTAGAATTCGGCAGCGTC [splayed arm]”: binds more weakly (MBP-AUNIP 21-70).

“GACGCTGCCGAATTCTACCAGTGCCTTGCTAGGACATCTTTGCCCACCTGCAGGTTCAC / TAGCAAGGCACTGGTAGAATTCGGCAGCGTC [3' tail DNA]”: binds more weakly (MBP-AUNIP; label: 5'-biotin on oligo 1).

“GACGCTGCCGAATTCTACCAGTGCCTTGCTAGGACATCTTTGCCCACCTGCAGGTTCAC (double strand) [blunt-ended dsDNA]”: binds more weakly (MBP-AUNIP; label: 5'-biotin on oligo 1).
